# Laboratory results as given in patent publication US10864190B2 (CeMM—Forschungszentrum für Molekulare Medizin GmbH, priority 2015, dated 2020).
# For at least one compound, name, drawing or mass did not settle the structure.
# Key:
# [1] = test system: AR signaling canonical targets (KLK3, TMPRSS2, KLK2) and AR; assay: RT-qPCR of AR and canonical targets of AR signaling in LNCaP cells; format: cell-based; conditions: steroid-deprived medium, 15 μM flutamide, 35 μM PPC, 24 hours
# Method: The RNeasy kit (Qiagen, Venlo, Netherlands) was used to extract RNA. cDNA was produced and reverse transcription quantitative polymerase chain reaction performed using the High Capacity cDNA Reverse Transcription kit and the SYBR Green Master mix from Thermo Fisher Scientific. Reverse transcription quantitative polymerase chain reaction was performed on a LightCycler 480 (Roche, Basel, Switzerland).
# LNCaP cells = assay: Dose-response matrix, viability of LNCaP cells; format: cell-based; conditions: 3 days, antiandrogen in combination with phenprocoumon
Structure (SMILES),"expression of AR signaling canonical targets KLK3, TMPRSS2 and KLK2 [1]",synergy in combination with phenprocoumon (LNCaP cells)
CC(C)C(=O)Nc1ccc([N+](=O)[O-])c(C(F)(F)F)c1 [flutamide],increased the expression of AR signaling canonical targets,–
CC(O)(CS(=O)(=O)c1ccc(F)cc1)C(=O)Nc1ccc(C#N)c(C(F)(F)F)c1 (centres unmarked) [bicalutamide],–,strong synergy
